Data taken from article PMC6305323.
No constants are given. Whether binding was seen depends on the method and setting. For some assays here: In cells and extracts the contact can be indirect. Some results given as binding are weak or reduced against the parent protein; the word gives no strength. For some assays here: Where a sequence is shown, tags or fusion partners need not be part of it. Blank lines part the entries; values can stand above or below the binder they belong to.

What was measured:
GFP-SLR1 (rice) = target: T1, GFP-SLR1 (rice) (UniProt Q7G7J6); assay: co-IP; rice protoplasts co-transformed with 6xMyc- and GFP-tagged constructs, 10 h in the dark at 28°C; IP buffer 25 mM Tris-HCl pH 7.5, 150 mM NaCl, 0.5 % Triton X-100, 1 mM EDTA, 1 mM DTT; GFP or Myc antibody and Protein G agarose beads; western blot with the other antibody
T1 sequence: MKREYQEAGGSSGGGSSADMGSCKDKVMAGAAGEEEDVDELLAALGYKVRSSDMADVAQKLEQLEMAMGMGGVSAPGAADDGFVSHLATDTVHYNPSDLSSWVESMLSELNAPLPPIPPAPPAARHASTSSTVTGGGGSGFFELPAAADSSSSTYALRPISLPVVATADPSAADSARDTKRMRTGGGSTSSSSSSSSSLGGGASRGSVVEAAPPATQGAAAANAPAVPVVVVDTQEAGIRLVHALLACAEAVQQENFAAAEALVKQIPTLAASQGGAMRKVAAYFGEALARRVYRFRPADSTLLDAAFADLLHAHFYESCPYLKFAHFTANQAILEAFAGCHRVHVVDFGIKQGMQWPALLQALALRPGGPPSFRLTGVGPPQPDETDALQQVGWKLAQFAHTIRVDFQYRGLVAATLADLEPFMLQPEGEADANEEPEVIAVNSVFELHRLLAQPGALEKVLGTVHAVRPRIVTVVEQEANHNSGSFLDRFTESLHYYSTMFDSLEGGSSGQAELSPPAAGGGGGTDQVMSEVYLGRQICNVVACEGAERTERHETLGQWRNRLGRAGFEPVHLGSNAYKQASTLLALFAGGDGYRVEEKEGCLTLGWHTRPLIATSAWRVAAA

[1] = target: T2, nYFP-SLR1 (rice (Oryza sativa cv. Dongjin)) (UniProt Q7G7J6); assay: split reporter; BiFC with nYFP and cYFP fusions in onion epidermal cells, tungsten particle bombardment; YFP signal by microscopy
T2 sequence: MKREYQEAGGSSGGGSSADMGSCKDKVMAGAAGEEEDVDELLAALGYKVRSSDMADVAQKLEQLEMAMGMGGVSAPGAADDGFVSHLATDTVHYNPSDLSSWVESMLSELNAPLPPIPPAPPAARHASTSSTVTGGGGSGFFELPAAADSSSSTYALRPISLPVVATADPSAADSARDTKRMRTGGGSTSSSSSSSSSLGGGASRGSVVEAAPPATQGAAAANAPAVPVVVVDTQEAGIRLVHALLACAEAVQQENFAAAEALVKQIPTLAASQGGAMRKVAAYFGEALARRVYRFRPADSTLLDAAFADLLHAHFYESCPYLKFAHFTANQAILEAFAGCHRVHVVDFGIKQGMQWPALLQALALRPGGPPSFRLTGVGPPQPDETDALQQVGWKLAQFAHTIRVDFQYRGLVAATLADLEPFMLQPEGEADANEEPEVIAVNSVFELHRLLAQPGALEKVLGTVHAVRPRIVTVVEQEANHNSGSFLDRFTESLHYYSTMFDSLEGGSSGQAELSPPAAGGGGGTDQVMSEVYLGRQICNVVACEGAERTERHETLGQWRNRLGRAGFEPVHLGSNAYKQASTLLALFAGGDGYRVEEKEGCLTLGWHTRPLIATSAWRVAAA

6xMyc-OsJAZ9 (rice) = target: T3, 6xMyc-OsJAZ9 (rice) (UniProt Q6ZJU3); assay: co-IP; rice protoplasts co-transformed with 6xMyc- and GFP-tagged constructs, 10 h in the dark at 28°C; IP buffer 25 mM Tris-HCl pH 7.5, 150 mM NaCl, 0.5 % Triton X-100, 1 mM EDTA, 1 mM DTT; GFP or Myc antibody and Protein G agarose beads; western blot with the other antibody
T3 sequence: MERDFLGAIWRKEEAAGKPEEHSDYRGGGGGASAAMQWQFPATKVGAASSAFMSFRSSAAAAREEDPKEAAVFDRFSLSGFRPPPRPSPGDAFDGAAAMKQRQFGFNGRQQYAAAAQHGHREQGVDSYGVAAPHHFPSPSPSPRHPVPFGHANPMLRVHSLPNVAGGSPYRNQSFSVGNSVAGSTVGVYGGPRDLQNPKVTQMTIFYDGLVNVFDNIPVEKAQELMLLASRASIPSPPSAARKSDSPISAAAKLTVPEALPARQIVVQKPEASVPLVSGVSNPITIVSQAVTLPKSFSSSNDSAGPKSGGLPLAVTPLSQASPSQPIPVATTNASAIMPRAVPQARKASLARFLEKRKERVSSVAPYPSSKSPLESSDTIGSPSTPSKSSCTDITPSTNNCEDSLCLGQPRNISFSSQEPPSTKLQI

[2] = target: T4, OsJAZ9 (Jasmonate ZIM-domain protein 9) (rice (Oryza sativa cv. Dongjin)) (UniProt Q6ZJU3); assay: two-hybrid; Matchmaker Gold (Clontech), Y2H Gold yeast; JAZs as bait in pGBKT7, DELLAs as prey in pGADT7; growth on DDO (-Leu/-Trp) media with 250 ng/mL Aureobasidin A, 5 days in the dark at 30°C
T4 sequence: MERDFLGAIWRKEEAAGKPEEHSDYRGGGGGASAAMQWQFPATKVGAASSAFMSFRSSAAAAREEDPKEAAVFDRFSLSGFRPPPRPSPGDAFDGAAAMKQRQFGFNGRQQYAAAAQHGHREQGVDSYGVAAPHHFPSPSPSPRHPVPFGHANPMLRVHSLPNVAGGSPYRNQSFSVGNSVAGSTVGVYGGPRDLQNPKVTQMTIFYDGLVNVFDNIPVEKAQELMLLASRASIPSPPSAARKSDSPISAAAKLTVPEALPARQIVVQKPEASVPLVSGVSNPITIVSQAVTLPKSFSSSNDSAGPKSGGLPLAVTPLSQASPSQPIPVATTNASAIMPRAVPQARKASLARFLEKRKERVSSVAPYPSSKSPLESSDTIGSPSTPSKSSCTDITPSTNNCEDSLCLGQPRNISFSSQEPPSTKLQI

B2: OsJAZ9-cYFP (protein, UniProt Q6ZJU3 1-427)
chain: MERDFLGAIWRKEEAAGKPEEHSDYRGGGGGASAAMQWQFPATKVGAASSAFMSFRSSAAAAREEDPKEAAVFDRFSLSGFRPPPRPSPGDAFDGAAAMKQRQFGFNGRQQYAAAAQHGHREQGVDSYGVAAPHHFPSPSPSPRHPVPFGHANPMLRVHSLPNVAGGSPYRNQSFSVGNSVAGSTVGVYGGPRDLQNPKVTQMTIFYDGLVNVFDNIPVEKAQELMLLASRASIPSPPSAARKSDSPISAAAKLTVPEALPARQIVVQKPEASVPLVSGVSNPITIVSQAVTLPKSFSSSNDSAGPKSGGLPLAVTPLSQASPSQPIPVATTNASAIMPRAVPQARKASLARFLEKRKERVSSVAPYPSSKSPLESSDTIGSPSTPSKSSCTDITPSTNNCEDSLCLGQPRNISFSSQEPPSTKLQI
binding [1]: binds

B4: SLR1G (domain or fragment, UniProt Q7G7J6 232-621)
chain: VDTQEAGIRLVHALLACAEAVQQENFAAAEALVKQIPTLAASQGGAMRKVAAYFGEALARRVYRFRPADSTLLDAAFADLLHAHFYESCPYLKFAHFTANQAILEAFAGCHRVHVVDFGIKQGMQWPALLQALALRPGGPPSFRLTGVGPPQPDETDALQQVGWKLAQFAHTIRVDFQYRGLVAATLADLEPFMLQPEGEADANEEPEVIAVNSVFELHRLLAQPGALEKVLGTVHAVRPRIVTVVEQEANHNSGSFLDRFTESLHYYSTMFDSLEGGSSGQAELSPPAAGGGGGTDQVMSEVYLGRQICNVVACEGAERTERHETLGQWRNRLGRAGFEPVHLGSNAYKQASTLLALFAGGDGYRVEEKEGCLTLGWHTRPLIATSAWR
binding [2]: binds

B5: GFP-SLR1 (protein, UniProt Q7G7J6 1-625)
chain: MKREYQEAGGSSGGGSSADMGSCKDKVMAGAAGEEEDVDELLAALGYKVRSSDMADVAQKLEQLEMAMGMGGVSAPGAADDGFVSHLATDTVHYNPSDLSSWVESMLSELNAPLPPIPPAPPAARHASTSSTVTGGGGSGFFELPAAADSSSSTYALRPISLPVVATADPSAADSARDTKRMRTGGGSTSSSSSSSSSLGGGASRGSVVEAAPPATQGAAAANAPAVPVVVVDTQEAGIRLVHALLACAEAVQQENFAAAEALVKQIPTLAASQGGAMRKVAAYFGEALARRVYRFRPADSTLLDAAFADLLHAHFYESCPYLKFAHFTANQAILEAFAGCHRVHVVDFGIKQGMQWPALLQALALRPGGPPSFRLTGVGPPQPDETDALQQVGWKLAQFAHTIRVDFQYRGLVAATLADLEPFMLQPEGEADANEEPEVIAVNSVFELHRLLAQPGALEKVLGTVHAVRPRIVTVVEQEANHNSGSFLDRFTESLHYYSTMFDSLEGGSSGQAELSPPAAGGGGGTDQVMSEVYLGRQICNVVACEGAERTERHETLGQWRNRLGRAGFEPVHLGSNAYKQASTLLALFAGGDGYRVEEKEGCLTLGWHTRPLIATSAWRVAAA
binding (6xMyc-OsJAZ9 (rice)): binds

Continued, values first:

binding (GFP-SLR1 (rice)): binds
B1: 6xMyc-OsJAZ9 (protein, UniProt Q6ZJU3 1-427)
chain: MERDFLGAIWRKEEAAGKPEEHSDYRGGGGGASAAMQWQFPATKVGAASSAFMSFRSSAAAAREEDPKEAAVFDRFSLSGFRPPPRPSPGDAFDGAAAMKQRQFGFNGRQQYAAAAQHGHREQGVDSYGVAAPHHFPSPSPSPRHPVPFGHANPMLRVHSLPNVAGGSPYRNQSFSVGNSVAGSTVGVYGGPRDLQNPKVTQMTIFYDGLVNVFDNIPVEKAQELMLLASRASIPSPPSAARKSDSPISAAAKLTVPEALPARQIVVQKPEASVPLVSGVSNPITIVSQAVTLPKSFSSSNDSAGPKSGGLPLAVTPLSQASPSQPIPVATTNASAIMPRAVPQARKASLARFLEKRKERVSSVAPYPSSKSPLESSDTIGSPSTPSKSSCTDITPSTNNCEDSLCLGQPRNISFSSQEPPSTKLQI

binding (6xMyc-OsJAZ9 (rice)): binds
B3: GFP-OsbHLH148 (protein, UniProt Q75KV9 1-299)
chain: MQMESYYGAFHADEAAFFFPHHVPASPELPFGLIASPEPEPEPEQAAAEARQSAFQEYGGAVHAGAPAAAGAVTTGGTNIHRRVMDVLGRMGGGGGGGEKGEGEEMEEEEEVPQRRRRGQGADVESSRGFRHMMRERQRREKLSQSYADLYAMVSSRSKGDKNSIVQSAAIYIHELKVARDQLQRRNEELKAQIMGHDEQQPCVTVQFEVDEPSSSIDSMIAALRRLKGMSVKARGIRSSMSGNRLWTEMNVETTIAACEVEKAVEEALKEVERNQPDSDAPFPGSKGWTQTSHVQNVF
